# Experimental data from US8969299B2, “Therapeutic agents for regulating serum phosphorus” (KAI Pharmaceuticals, Inc., priority 2011, dated 2015).
# “Also recorded” adds a separate entry of the source. For at least one compound, name, drawing or mass did not settle the structure.
# Experiments:
# [1] = system: hemodialysis subjects with CKD-MBD; test: Phase 2 12-week dose titration study, thrice-weekly IV SEQ ID NO:3; assay type: in vivo, human
# [2] = system: ESRD patients on hemodialysis with SHPT; test: Phase 1 single-dose study of IV SEQ ID NO:3 after hemodialysis; assay type: in vivo, human
compound,measurement,setting,value
"CC(=O)N[C@H](CSSC[C@H](N)C(=O)O)C(=O)N[C@H](C)C(=O)N[C@H](CCCNC(=N)N)C(=O)N[C@H](CCCNC(=N)N)C(=O)N[C@H](CCCNC(=N)N)C(=O)N[C@H](C)C(=O)N[C@H](CCCNC(=N)N)C(N)=O [SEQ ID NO: 3, Ac-c(C)arrrar-NH2]","Serum Phosphorus (P), EOT","[1]; Total, N = 37, baseline 5.7",5.0 mg/dL
same,"Serum Phosphorus, Mean percent Change","[1]; Total, N = 37, end of the efficacy treatment period",−10.5%
same,mean reduction from baseline in iPTH,"[1]; end of the 12-week treatment period, mean baseline iPTH 853.4 pg/mL",53%
same,subjects who achieved iPTH≦300 pg/mL,[1]; end of the treatment period,56%
same,reduction of corrected calcium (cCa),"[1]; end of the treatment period, mean baseline cCa 10.1 mg/dL",15%
same,subjects who achieved ≧30% reduction in iPTH,[1]; secondary responder analysis,89%
same,"Serum Phosphorus, Mean percent Change","[1]; subgroup iPTH > 700, N = 15",−14.5%
same,"Serum Phosphorus (P), EOT","[1]; subgroup iPTH > 700, N = 15, baseline 6.5",5.5 mg/dL
same,"Serum Phosphorus, Mean percent Change","[1]; subgroup iPTH ≦ 700, N = 22",−7.7%
same,"Serum Phosphorus (P), EOT","[1]; subgroup iPTH ≦ 700, N = 22, baseline 5.1",4.7 mg/dL
same,effect on the rise of serum phosphorus after dialysis,[2]; 5 mg dose,minimal effect
same,mean percent increase in serum phosphorus lower than placebo,"[2]; at discharge, 20-60 mg",≥ 24 percentage points
same,effect on the rise (rebound) of serum phosphorus after dialysis,"[2]; doses above 5 mg (10, 20, 40, 60 mg)",markedly decreased the rise of serum phosphorus; also recorded: marked attenuation or decreased in the rise of serum phosphorus after dialysis; also recorded: dramatically attenuated the post-dialysis rebound in serum phosphorus levels
same,decrease in serum calcium,[2]; following single IV injection post dialysis,10-16%
same,decrease in the levels of intact PTH,[2]; rapid decrease following single IV injection (5-60 mg) post dialysis,60-80%
